Measurements: publication PMC6753473

What follows are substances tested against GFP-tagged CAF1* catalytic mutant (DExAA) (UniProt Q9UIV1) (assay: co-IP; GFP-CAF1 or GFP-CAF1* expressed in HEK293T cells, immunoprecipitated with anti-GFP antibody; precipitates incubated on ice with 12 μM purified MBP or MBP-tagged CIR for 10 min, washed, western blot of endogenous CCR4–NOT subunits).

Row | binding | Substance
1 | binds | endogenous CCR4a (from UniProt Q9ULM6 1-557) (enzyme)
2 | binds | endogenous NOT2 (from UniProt Q9NZN8 1-540)
3 | binds | endogenous NOT3 (from UniProt O75175 1-753)

These are yes or no findings as the source states them, for the method shown. In cells and extracts the contact can be indirect. Binding calls can cover weak binding; strength is not graded here.
